No constants are given. Whether binding was seen depends on the method and setting. In cells and extracts the contact can be indirect. Here binding means that the protein was enriched with, or labelled near, the bait; the list need not be complete.

The chains behind the UniProt entries cited, without tags or fusion partners.
UniProt P63092: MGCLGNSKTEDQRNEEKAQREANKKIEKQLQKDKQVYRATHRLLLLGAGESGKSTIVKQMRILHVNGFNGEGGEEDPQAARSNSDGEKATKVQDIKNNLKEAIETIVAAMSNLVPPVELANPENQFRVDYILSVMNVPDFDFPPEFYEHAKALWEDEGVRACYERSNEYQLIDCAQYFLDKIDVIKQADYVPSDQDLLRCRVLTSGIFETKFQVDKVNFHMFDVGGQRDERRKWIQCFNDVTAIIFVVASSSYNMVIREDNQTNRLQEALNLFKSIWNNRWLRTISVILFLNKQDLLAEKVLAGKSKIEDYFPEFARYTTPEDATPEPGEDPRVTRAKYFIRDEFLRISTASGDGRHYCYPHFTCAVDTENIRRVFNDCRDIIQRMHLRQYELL
UniProt P40763: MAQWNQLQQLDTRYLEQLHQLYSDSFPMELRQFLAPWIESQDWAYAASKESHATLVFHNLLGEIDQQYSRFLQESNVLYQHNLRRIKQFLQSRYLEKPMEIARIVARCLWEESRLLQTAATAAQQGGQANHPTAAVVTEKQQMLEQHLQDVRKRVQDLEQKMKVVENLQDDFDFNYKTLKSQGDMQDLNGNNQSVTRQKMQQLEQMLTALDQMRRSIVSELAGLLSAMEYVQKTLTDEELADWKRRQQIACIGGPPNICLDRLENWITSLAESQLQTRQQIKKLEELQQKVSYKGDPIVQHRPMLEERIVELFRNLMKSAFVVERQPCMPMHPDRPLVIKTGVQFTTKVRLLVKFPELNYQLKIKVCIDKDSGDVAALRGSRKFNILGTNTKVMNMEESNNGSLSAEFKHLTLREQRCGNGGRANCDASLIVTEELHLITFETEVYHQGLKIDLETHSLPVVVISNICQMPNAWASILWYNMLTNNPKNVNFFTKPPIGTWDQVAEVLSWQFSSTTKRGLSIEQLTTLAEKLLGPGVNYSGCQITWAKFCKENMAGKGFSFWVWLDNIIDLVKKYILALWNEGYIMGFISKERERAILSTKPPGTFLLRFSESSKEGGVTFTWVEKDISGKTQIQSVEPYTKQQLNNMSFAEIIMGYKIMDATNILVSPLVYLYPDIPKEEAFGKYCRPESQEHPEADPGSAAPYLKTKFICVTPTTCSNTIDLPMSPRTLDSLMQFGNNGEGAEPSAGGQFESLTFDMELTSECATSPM

The test addresses G-protein alpha-subunit (GNAS), endogenous (human (endogenous in HepG2)) (UniProt P63092). Nature of the test: affinity purification with mass spectrometry; co-IP with anti-GNAS antibody from HepG2 cells, protein A-agarose beads, SDS-PAGE, silver stain, LC-MS/MS (UPLC-QTOF).

As to “signal transducer and activator of transcription 3 (STAT3), endogenous (from UniProt P40763 1-770)”, the binding entry was “binds”.

The record behind these values is article PMC7038622.
